PubChem BioAssay AID652243 | Drosophila RNAi Screening Center, 2013

Assay: 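Fly genes required for human androgen receptor driven transcription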 (primary screen)
System: Drosophila S2R+ cells
Reagents: long dsRNA against Drosophila genes
Time to read-out: 72 h (48 h, then 24 h hormone)
Treatment: synthetic androgen R1881 at 10 nM for 24 h
Read-out: 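Firefly light from an androgen-responsive reporter and Renilla control light per well, raw and unnormalised, for each of two replicates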
Reading the numbers: firefly reporter light: higher = more light from androgen-responsive reporter; Renilla control light: higher = more constitutive control signal (cell number, transfection)
Hit rule: 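Across duplicate plates, a knock-down whose log firefly/Renilla ratio shifted a set fold down or up from the GFP/LacZ control mean was a hit; the downward cut appears as both 1.5 and 3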
Calls: active = hit: reporter lowered or raised; inactive = no hit
In all, the deposit lists about 24,000 reagents; shown is an unselected part of those that have a named target and a result. Over the whole deposit, 246 (1%) got an active call. 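Plates not normalised; calls are printed but the firefly/Renilla ratio behind them is not deposited; fold cut for lowering reported inconsistently.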 The raw values are shown without normalisation. Not stated in the record: the amount of reagent.

What did the screen give for CG7997 [DRSC07052]?
firefly reporter light, replicate 1: 1.04e6; firefly reporter light, replicate 2: 9.48e5; Renilla control light, replicate 1: 1.75e6; Renilla control light, replicate 2: 1.37e6; Outcome: inactive

For CG7997 [DRSC25706], what was measured?
firefly reporter light, replicate 1: 8.04e5; firefly reporter light, replicate 2: 6.85e5; Renilla control light, replicate 1: 6.81e5; Renilla control light, replicate 2: 1.20e6; Outcome: inactive

With iav [DRSC18363], what does the deposit list?
firefly reporter light, replicate 1: 30648; firefly reporter light, replicate 2: 35310; Renilla control light, replicate 1: 1.53e6; Renilla control light, replicate 2: 1.10e6; Outcome: inactive

Which result is listed for iav [DRSC25119]?
firefly reporter light, replicate 1: 7.50e5; firefly reporter light, replicate 2: 6.21e5; Renilla control light, replicate 1: 1.09e6; Renilla control light, replicate 2: 9.81e5; Outcome: inactive

How did the screen score CG15914 [DRSC19739]?
firefly reporter light, replicate 1: 5.16e5; firefly reporter light, replicate 2: 4.78e5; Renilla control light, replicate 1: 4.44e6; Renilla control light, replicate 2: 3.42e6; Outcome: inactive

Which result is listed for CG5819 [DRSC04520]?
firefly reporter light, replicate 1: 1.55e5; firefly reporter light, replicate 2: 1.69e5; Renilla control light, replicate 1: 1.42e6; Renilla control light, replicate 2: 9.12e5; Outcome: inactive

With CG5819 [DRSC28265], what does the deposit list?
firefly reporter light, replicate 1: 3.14e5; firefly reporter light, replicate 2: 4.64e5; Renilla control light, replicate 1: 1.04e6; Renilla control light, replicate 2: 1.44e6; Outcome: inactive

With Mvb12 [DRSC20027], what was measured?
firefly reporter light, replicate 1: 3.78e5; firefly reporter light, replicate 2: 3.85e5; Renilla control light, replicate 1: 3.20e6; Renilla control light, replicate 2: 2.94e6; Outcome: inactive

What is on record for Dic4 [DRSC10317]?
firefly reporter light, replicate 1: 2.87e5; firefly reporter light, replicate 2: 2.11e5; Renilla control light, replicate 1: 2.67e6; Renilla control light, replicate 2: 2.87e6; Outcome: inactive

For CG33922 [DRSC38939], how do the results read?
firefly reporter light, replicate 1: 7.66e5; firefly reporter light, replicate 2: 6.93e5; Renilla control light, replicate 1: 2.10e6; Renilla control light, replicate 2: 2.10e6; Outcome: inactive

What did the screen give for Drp1 [DRSC00574]?
firefly reporter light, replicate 1: 9.60e5; firefly reporter light, replicate 2: 1.03e6; Renilla control light, replicate 1: 3.23e6; Renilla control light, replicate 2: 1.83e6; Outcome: inactive

For Drp1 [DRSC26413], what does the deposit list?
firefly reporter light, replicate 1: 5.40e5; firefly reporter light, replicate 2: 5.14e5; Renilla control light, replicate 1: 5.85e5; Renilla control light, replicate 2: 6.37e5; Outcome: inactive

How did the screen score Rev1 [DRSC08264]?
firefly reporter light, replicate 1: 9.60e5; firefly reporter light, replicate 2: 8.03e5; Renilla control light, replicate 1: 1.59e6; Renilla control light, replicate 2: 1.43e6; Outcome: inactive

For CG33648 [DRSC37908], how do the results read?
firefly reporter light, replicate 1: 1.26e6; firefly reporter light, replicate 2: 1.13e6; Renilla control light, replicate 1: 1.87e6; Renilla control light, replicate 2: 1.87e6; Outcome: inactive

How did the screen score Vps60 [DRSC10610]?
firefly reporter light, replicate 1: 2.21e5; firefly reporter light, replicate 2: 2.27e5; Renilla control light, replicate 1: 2.30e6; Renilla control light, replicate 2: 2.43e6; Outcome: inactive

How did the screen score ddbt [DRSC38857]?
firefly reporter light, replicate 1: 8.29e5; firefly reporter light, replicate 2: 7.60e5; Renilla control light, replicate 1: 2.33e6; Renilla control light, replicate 2: 2.03e6; Outcome: inactive

For Slik [DRSC04471], how do the results read?
firefly reporter light, replicate 1: 7.99e5; firefly reporter light, replicate 2: 8.60e5; Renilla control light, replicate 1: 1.40e6; Renilla control light, replicate 2: 1.31e6; Outcome: inactive

Which result is listed for Slik [DRSC29219]?
firefly reporter light, replicate 1: 1.01e6; firefly reporter light, replicate 2: 1.04e6; Renilla control light, replicate 1: 1.33e6; Renilla control light, replicate 2: 1.43e6; Outcome: inactive

What did the screen give for Slik [DRSC37061]?
Outcome: inactive

Which result is listed for Corp [DRSC17771]?
firefly reporter light, replicate 1: 1.44e5; firefly reporter light, replicate 2: 1.17e5; Renilla control light, replicate 1: 9.26e5; Renilla control light, replicate 2: 9.11e5; Outcome: inactive

What did the screen give for Corp [DRSC24622]?
firefly reporter light, replicate 1: 4.80e5; firefly reporter light, replicate 2: 3.89e5; Renilla control light, replicate 1: 6.41e5; Renilla control light, replicate 2: 4.66e5; Outcome: inactive
